Experimental data taken from patent US20090099195A1 (ASTRAZENECA AB, priority 2007, published 2009).
Some of these results come from one statement about several compounds together.

Target: T1, P2X3 receptors (UniProt P56373)
T1 sequence (P56373 1-397): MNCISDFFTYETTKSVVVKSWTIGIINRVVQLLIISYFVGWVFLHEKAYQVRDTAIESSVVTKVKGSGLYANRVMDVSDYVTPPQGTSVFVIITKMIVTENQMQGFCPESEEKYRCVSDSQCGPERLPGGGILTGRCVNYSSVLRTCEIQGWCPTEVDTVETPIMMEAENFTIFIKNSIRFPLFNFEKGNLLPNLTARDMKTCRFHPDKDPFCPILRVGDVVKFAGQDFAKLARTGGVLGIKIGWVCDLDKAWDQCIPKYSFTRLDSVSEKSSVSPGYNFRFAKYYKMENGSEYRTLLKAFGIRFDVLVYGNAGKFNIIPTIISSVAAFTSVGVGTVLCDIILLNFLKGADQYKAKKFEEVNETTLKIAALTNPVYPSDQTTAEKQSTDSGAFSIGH
Test: FLIPR antagonist assay, receptor or clone not stated (less preferred compounds)
Conditions: compounds also tested

## CC(=O)N1CCN(c2nc3c(c(N4CCC(c5ccc(Cl)cc5)C4)n2)CN(C(C)C)C3=O)CC1 (stereo not shown) [2-(4-acetylpiperazin-1-yl)-4-[3-(4-chlorophenyl)pyrrolidin-1-yl]-6-(1-methylethyl)-5,6-dihydro-7H-pyrrolo[3,4-d]pyrimidin-7-one]
  IC50: > 3.3 µM
